In the supplement of paper PMC7024190:
Where a name gives a salt, the structure may show the parent alone. Some of the results follow. This data set is noisy: repeats of one test often differ as much as different tests do.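 The cells were human embryonic kidney cells carrying a Renilla luciferase gene, driven by the HSV-TK promoter, on a plasmid put in briefly by transfection. This is the first-round screen of about ten thousand compounds, looking for ones that raise reporter output.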

Test system: HEK 293FT
Assay: log relative Renilla luciferase luminescence (reporter expression vs reference, reference not stated) (log (base not stated)); higher = higher recombinant reporter expression
Settings: 10 µM; time after transfection 48 h

Row | Compound | log
1 | COc1cc(-c2coc3cc(OCc4ccccc4)c(OC)c(O)c3c2=O)cc(OCc2ccccc2)c1OC [irigenin, dibenzyl ether] | -0.0356
2 | Cc1cccc(C(=O)O)c1O [hydroxytoluic acid] | 0.19
3 | CC1(C)C(=O)C=C[C@]2(C)[C@H]3CC[C@@]4(C)[C@H](c5ccoc5)OC(=O)[C@H]5O[C@]54[C@]3(C)C(=O)C[C@@H]12 [deacetoxy-7-oxogedunin] | 0.311
4 | CNCCCC1c2ccccc2C=Cc2ccccc21 [protryptyline hydrochloride] | 0.223
5 | CCOC(=O)C1=C[C@@H](OC(CC)CC)[C@H](NC(C)=O)[C@@H](N)C1 [oseltamivir phosphate] | 0.0324
6 | C[C@]12CCC(=O)C=C1CC[C@@H]1[C@@H]2[C@@H](O)C[C@@]2(C)[C@H]1CC[C@]2(O)C(=O)CO [hydrocortisone] | 0.116
7 | Oc1ncnc2[nH]ncc12 [allopurinol] | -0.0915
8 | c1ccc2c(Cc3c[nH]c4ccccc34)c[nH]c2c1 [3,3'-diindolylmethane] | 0.0168
9 | CO/N=C(\C(=O)N[C@@H]1C(=O)N2C(C(=O)OCOC(=O)C(C)(C)C)=C(/C=C\c3scnc3C)CS[C@H]12)c1csc(N)n1 [cefditorin pivoxil] | 0.106
10 | CN(N=O)C(=O)N[C@H]1C(O)O[C@H](CO)[C@@H](O)[C@@H]1O (mixture of isomers) [streptozosin] | 0.019
11 | COc1ccc(CCN(C)CCCC(C#N)(c2ccc(OC)c(OC)c2)C(C)C)cc1OC (centres undefined) [verapamil hydrochloride] | 0.0481
12 | CCCc1cc(=O)[nH]c(=S)[nH]1 [propylthiouracil] | 0.113
13 | CC1=C(CCC(=O)O)c2cc3[nH]c(cc4nc(cc5[nH]c(cc1n2)c(C)c5C(C)O)C(C)=C4C(C)O)c(C)c3CCC(=O)O (centres undefined) [haematoporphyrin] | -0.0723
14 | CN(C)CCCN1c2ccccc2Sc2ccccc21 [promazine hydrochloride] | 0.0862
15 | Cc1cc(C(C)(C)C)c(O)c(C)c1CC1=NCCN1 [oxymetazoline hydrochloride] | 0.212
16 | NC(Cc1ccc(Cl)cc1)C(=O)O (centres undefined) [fenclonine] | 0.0848
17 | C=CC(C1=CC(=O)C=CC1=O)c1ccccc1 (centres undefined) [dalbergione] | 0.0391
18 | COc1c2ccoc2c(OC)c2oc(=O)ccc12 [isopimpinellin] | 0.000119
19 | COc1ccc([C@@H]2CC(=O)c3c(O)cc(O[C@@H]4O[C@H](CO[C@@H]5O[C@@H](C)[C@H](O)[C@@H](O)[C@H]5O)[C@@H](O)[C@H](O)[C@H]4O)cc3O2)cc1O [hesperidin] | 0.175

3 entries out of the list, sorted by heavy-atom count, smallest number first.
Row | Compound | log
15 | Cc1cc(C(C)(C)C)c(O)c(C)c1CC1=NCCN1 [oxymetazoline hydrochloride] | 0.212
19 | COc1ccc([C@@H]2CC(=O)c3c(O)cc(O[C@@H]4O[C@H](CO[C@@H]5O[C@@H](C)[C@H](O)[C@@H](O)[C@H]5O)[C@@H](O)[C@H](O)[C@H]4O)cc3O2)cc1O [hesperidin] | 0.175
13 | CC1=C(CCC(=O)O)c2cc3[nH]c(cc4nc(cc5[nH]c(cc1n2)c(C)c5C(C)O)C(C)=C4C(C)O)c(C)c3CCC(=O)O (centres undefined) [haematoporphyrin] | -0.0723
